From paper PMC11704005
Results are given in words; binding and its absence hold for the method and conditions named. Binding seen in cells or lysates may run through a third protein. Some binding calls cover weakened binding; strength is not graded here. For some of these results: Sequences can lack the tags named with a protein. Blank lines part the entries; values can stand above or below the molecule they belong to.

Amino acid sequences for entries named in this document (tags omitted). Residues count along the entry.
UniProt O15118, residues 23-1278: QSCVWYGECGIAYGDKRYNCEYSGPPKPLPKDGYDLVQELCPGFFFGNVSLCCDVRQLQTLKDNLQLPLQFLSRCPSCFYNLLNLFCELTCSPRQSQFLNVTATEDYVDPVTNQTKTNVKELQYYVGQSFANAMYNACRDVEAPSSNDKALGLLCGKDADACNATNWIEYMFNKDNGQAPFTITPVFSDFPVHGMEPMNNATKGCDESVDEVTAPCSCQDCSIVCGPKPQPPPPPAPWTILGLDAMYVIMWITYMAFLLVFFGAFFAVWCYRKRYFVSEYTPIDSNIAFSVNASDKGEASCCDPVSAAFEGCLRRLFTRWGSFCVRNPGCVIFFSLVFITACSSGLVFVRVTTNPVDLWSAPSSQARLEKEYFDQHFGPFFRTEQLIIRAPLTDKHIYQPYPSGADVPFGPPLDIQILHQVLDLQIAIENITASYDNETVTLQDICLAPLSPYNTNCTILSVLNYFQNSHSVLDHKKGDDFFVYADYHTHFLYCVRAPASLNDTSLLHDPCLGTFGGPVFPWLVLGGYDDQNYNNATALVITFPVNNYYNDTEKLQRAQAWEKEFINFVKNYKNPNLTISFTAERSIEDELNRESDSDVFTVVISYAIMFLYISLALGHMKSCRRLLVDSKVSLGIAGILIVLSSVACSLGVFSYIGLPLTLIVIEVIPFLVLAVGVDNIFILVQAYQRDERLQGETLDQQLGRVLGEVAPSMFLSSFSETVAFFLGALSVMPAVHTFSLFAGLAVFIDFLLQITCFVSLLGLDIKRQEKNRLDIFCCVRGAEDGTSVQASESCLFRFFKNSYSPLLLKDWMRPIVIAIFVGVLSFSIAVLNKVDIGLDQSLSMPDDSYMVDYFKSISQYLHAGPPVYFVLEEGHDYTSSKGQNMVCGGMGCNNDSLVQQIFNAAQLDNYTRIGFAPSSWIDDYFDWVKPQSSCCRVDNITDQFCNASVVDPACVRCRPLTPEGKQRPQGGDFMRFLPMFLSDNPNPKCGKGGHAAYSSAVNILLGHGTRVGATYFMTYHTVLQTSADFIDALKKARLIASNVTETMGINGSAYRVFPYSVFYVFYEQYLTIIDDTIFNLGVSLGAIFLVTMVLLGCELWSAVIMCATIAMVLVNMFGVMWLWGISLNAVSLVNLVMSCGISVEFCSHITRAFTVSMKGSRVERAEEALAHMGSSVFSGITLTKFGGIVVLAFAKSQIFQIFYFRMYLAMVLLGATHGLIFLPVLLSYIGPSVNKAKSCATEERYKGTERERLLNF
UniProt O15105: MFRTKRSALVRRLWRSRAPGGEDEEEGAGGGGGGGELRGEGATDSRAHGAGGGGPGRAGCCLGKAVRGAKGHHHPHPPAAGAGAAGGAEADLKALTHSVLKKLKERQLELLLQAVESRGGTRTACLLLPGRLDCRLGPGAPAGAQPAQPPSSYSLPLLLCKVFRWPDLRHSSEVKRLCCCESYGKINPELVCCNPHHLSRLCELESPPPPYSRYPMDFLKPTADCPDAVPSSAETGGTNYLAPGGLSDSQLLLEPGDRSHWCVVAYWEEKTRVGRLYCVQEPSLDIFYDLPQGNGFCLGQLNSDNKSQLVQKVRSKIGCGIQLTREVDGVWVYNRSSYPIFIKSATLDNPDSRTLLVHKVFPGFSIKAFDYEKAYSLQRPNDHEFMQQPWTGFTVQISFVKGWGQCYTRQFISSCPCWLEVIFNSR
UniProt Q9HCE7: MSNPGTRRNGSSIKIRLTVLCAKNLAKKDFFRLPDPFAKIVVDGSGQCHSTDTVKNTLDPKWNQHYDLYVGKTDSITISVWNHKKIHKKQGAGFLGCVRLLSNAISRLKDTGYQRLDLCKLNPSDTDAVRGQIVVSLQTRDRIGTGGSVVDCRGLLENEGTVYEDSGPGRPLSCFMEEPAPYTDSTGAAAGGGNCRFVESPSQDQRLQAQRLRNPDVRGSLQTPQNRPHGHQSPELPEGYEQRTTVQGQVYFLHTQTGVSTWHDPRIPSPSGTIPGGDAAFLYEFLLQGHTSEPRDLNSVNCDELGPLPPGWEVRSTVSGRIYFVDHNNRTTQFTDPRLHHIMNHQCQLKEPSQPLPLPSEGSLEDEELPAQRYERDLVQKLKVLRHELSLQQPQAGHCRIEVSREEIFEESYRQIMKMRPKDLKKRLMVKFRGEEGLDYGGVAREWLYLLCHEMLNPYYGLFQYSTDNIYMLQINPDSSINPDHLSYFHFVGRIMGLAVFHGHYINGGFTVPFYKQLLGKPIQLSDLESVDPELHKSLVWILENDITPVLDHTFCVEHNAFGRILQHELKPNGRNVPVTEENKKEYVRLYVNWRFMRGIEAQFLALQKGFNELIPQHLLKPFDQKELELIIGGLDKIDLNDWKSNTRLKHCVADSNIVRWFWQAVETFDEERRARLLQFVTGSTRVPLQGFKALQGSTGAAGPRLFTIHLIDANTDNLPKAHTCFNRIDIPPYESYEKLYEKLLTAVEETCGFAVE

How the values were obtained:
TGFBR1-mCherry-His = target: T1, TGFBR1-mCherry-His (UniProt P36897); assay: co-IP; TGFBR1-mCherry-His stably overexpressed in PLC/PRF/5 (with or without NPC1 overexpression) and HepG2 (with or without NPC1 knockdown); immunoprecipitation with anti-His antibody; lysates and immunoprecipitates blotted
T1 sequence: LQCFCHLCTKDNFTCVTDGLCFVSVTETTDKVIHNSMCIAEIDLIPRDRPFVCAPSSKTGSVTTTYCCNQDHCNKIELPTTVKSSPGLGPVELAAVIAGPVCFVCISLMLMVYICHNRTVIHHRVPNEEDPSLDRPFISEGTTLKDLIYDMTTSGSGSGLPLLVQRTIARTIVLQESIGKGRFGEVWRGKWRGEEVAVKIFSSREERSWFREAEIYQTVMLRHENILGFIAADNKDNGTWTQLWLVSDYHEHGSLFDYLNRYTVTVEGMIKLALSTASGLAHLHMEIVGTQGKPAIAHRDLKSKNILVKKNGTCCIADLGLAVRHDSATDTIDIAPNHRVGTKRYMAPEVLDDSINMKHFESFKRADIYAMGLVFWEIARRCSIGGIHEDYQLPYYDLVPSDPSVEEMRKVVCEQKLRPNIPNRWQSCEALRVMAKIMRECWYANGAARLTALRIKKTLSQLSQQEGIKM

TGFBR1-Myc = target: T2, TGFBR1-Myc (UniProt P36897); assay: co-IP; PLC/PRF/5 transfected with NPC1-His-Flag and TGFBR1-Myc or TGFBR1 deletion mutants; anti-Myc magnetic beads, immunoblot with Flag or Myc antibody
T2 sequence: T1 sequence

[1] = target: ectopic NPC1 (Niemann-Pick disease type C protein 1), tagged construct of Fig. 5a and Supplementary Fig. 6a (UniProt O15118); assay: co-IP; lysates (NP-40 IP buffer) of transfected PLC/PRF/5 (Fig. 5a) and HEK-293T (Supplementary Fig. 6a) cells; immunoprecipitation with anti-Flag (or GFP) antibody, immunoblot with anti-GFP (or Flag) antibody; 4 °C
[2] = target: endogenous NPC1 (human (endogenous in PLC/PRF/5 and HepG2)) (UniProt O15118); assay: co-IP; endogenous proteins; PLC/PRF/5 and HepG2 lysates immunoprecipitated with control IgG or anti-NPC1 antibodies; NP-40 IP buffer, 4 °C
NPC1-His-Flag = NPC1-His-Flag (UniProt O15118); assay: co-IP; PLC/PRF/5 stably overexpressing TGFBR1-mCherry-His, transfected with NPC1-His-Flag or NPC1 deletion mutants; anti-Flag magnetic beads, immunoblot with mCherry or Flag antibody

binding (TGFBR1-mCherry-His): binds
Molecule: NPC1-HA (stably overexpressed NPC1) (from UniProt O15118 23-1278)

binding (TGFBR1-Myc): binds
Molecule: NPC1-His-Flag (from UniProt O15118 23-1278)

binding (TGFBR1-mCherry-His): binds
Molecule: SMAD7 (from UniProt O15105 1-426)

binding (TGFBR1-mCherry-His): binds
Molecule: SMURF1 (from UniProt Q9HCE7 1-757) (enzyme)

binding [1]: binds
B1: ectopic TGFBR1 (TGF-β receptor type-1), tagged construct of Fig. 5a and Supplementary Fig. 6a (receptor, UniProt P36897 34-503)
chain: T1 sequence

binding [2]: binds
B2: endogenous TGFBR1 (receptor, UniProt P36897 34-503)
chain: T1 sequence

binding (NPC1-His-Flag): binds
B3: TGFBR1-mCherry-His (receptor, UniProt P36897 34-503)
chain: T1 sequence
